Laboratory results published in PubChem BioAssay AID2685 (National Center for Advancing Translational Sciences (NCATS), 2010).
The list shows a part of the results. Further columns of the screen follow, without active or inactive calls. Compounds called inactive in the main read-out are mostly missing here. Words in brackets tell the shape of the fitted curve; partial curves, single points and poor fits give uncertain potencies.

Assay: qHTS Assay for Lipid Storage Modulators in Drosophila S3 Cells;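 for cell number change: cells counted by Cell Tracker Red CMTPX staining in the red channel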
Settings: BODIPY lipid droplet fluorescence, 18-24 h; for cell number change: measured here: cell count max response, cells fed with added oleic acid
Method in brief: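 Laser-scanning cytometry quantifies lipid droplet accumulation (500–530 nm total intensity; droplet/cell object ratio) in oleic acid-fed (400 uM added) Drosophila S3 cells treated with a concentration series. 20 uM Triacsin C defined 100% inhibition.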

[1] = measured here: lipid fluorescence (Fed channel) AC50, cells fed with added oleic acid
[2] = measured here: cell number channel AC50, cells fed with added oleic acid

C=CCNc1nc(N)c(C(=O)Nc2cc(C)on2)s1
cell number change: -12.3% | AC50 [1]: 32.6 µM [falling, partial curve, poor fit]

O=C(Nc1nc2ccc(S(=O)(=O)N3CCCCC3)cc2s1)c1ccncc1
AC50 [2]: 0.58 µM [rising, single point]

Cc1ccc(SCCN2C(=O)NC(C)(C)C2=O)cc1
cell number change: 2.75% | AC50 [2]: 0.116 µM [rising, full curve, poor fit]

COc1ccc(Cn2c(C)c(C)c(C#N)c2NC(=O)Nc2cccc(C)c2)cc1
cell number change: 7.94% | AC50 [1]: 0.00461 µM [falling, full curve, poor fit]

CCCS(=O)(=O)N1CCCC(C(=O)NC2CCCCC2)C1 (stereo not drawn)
cell number change: -13.8% | AC50 [1]: 2.59 µM [rising, partial curve]

COc1ccccc1-c1nn2c(C(F)(F)F)nnc2s1
cell number change: -3.9%

COc1ccc(C(C(C(=O)c2cccs2)N2CCOCC2)N2CCOCC2)cc1OC (stereo not drawn)
cell number change: 158% | AC50 [2]: 23.1 µM [rising, partial curve] | AC50 [1]: 0.164 µM [rising, full curve, poor fit]

CCOC(=O)C1C(C(=O)Nc2cccc(C(F)(F)F)c2)C1C(=O)NC(C)C (stereo not drawn)
cell number change: -23.5% | AC50 [1]: 29.1 µM [falling, single point]

O=C(/C=C/c1cccc([N+](=O)[O-])c1)NCCN1CCOCC1
cell number change: 6.32%

c1csc(-c2cnc3n2CCCC3)c1
cell number change: 1.7% | AC50 [1]: 6.51 µM [rising, single point]

CCCCOc1c(Cl)cc(CNC(C)(C)CO)cc1OCC
cell number change: -9.98% | AC50 [1]: 10.3 µM [falling, partial curve]

Cc1noc(C)c1CSCC(=O)Nc1cc(C(F)(F)F)ccc1N1CCOCC1
cell number change: -2.59% | AC50 [1]: 4.61 µM [falling, partial curve, poor fit]

C/C(=N\NC(=O)c1ccccc1C)c1ccc(NC(=O)c2cccs2)cc1
cell number change: 8.2%

COc1ccc(CCNC(=O)CCCn2c(=O)c3cccn3c3cccnc32)c(OC)c1OC
cell number change: -13% | AC50 [1]: 0.0651 µM [falling, full curve, poor fit]

Cc1nc(C(F)(F)F)nc(Nc2ccc(Br)cc2)c1C#N
AC50 [2]: 0.92 µM [rising, partial curve] | AC50 [1]: 6.51 µM [rising, single point]

COc1ccc(CNC(=O)CSc2ccc(Br)cc2)cc1OC
cell number change: -1.16% | AC50 [1]: 0.00461 µM [falling, full curve]

Cc1c(NC(=O)C(C)OC(=O)c2sc3ccccc3c2Cl)c(=O)n(-c2ccccc2)n1C (stereo not drawn)
cell number change: -16.7%

O=C(Cc1cccs1)Nc1nc(-c2cccnc2)cs1
cell number change: 5.94% | AC50 [2]: 3.66 µM [rising, partial curve] | AC50 [1]: 2.59 µM [rising, full curve]

COc1cccc(CNC(=O)CCC(=O)N2CCOCC2)c1
AC50 [1]: 29.1 µM [falling, single point]

CCOC(=O)c1cc2ccc3ccccc3c2s1
cell number change: -30.7% | AC50 [2]: 14.6 µM [falling, single point]

CCOC(=O)Nc1ccc2c(c1)ncn2C1CCCCC1
cell number change: 10.7% | AC50 [1]: 29.1 µM [rising, single point]

OCc1ccc(O)c2ncccc12
cell number change: -48.8% | AC50 [2]: 23.1 µM [falling, partial curve, poor fit] | AC50 [1]: 23.1 µM [falling, partial curve]

CC(=O)Nc1ccc(S(=O)(=O)Nc2ccn(Cc3ccccc3Cl)n2)cc1
cell number change: -19.6% | AC50 [1]: 0.58 µM [rising, single point]

O=C(NC(=S)Nc1cccc([N+](=O)[O-])c1)C1CCCC1
cell number change: -5.45% | AC50 [1]: 29.1 µM [rising, single point]

COc1ccc2c(c1)[nH]c1c(N3CCSCC3)ncnc12
cell number change: -35.2% | AC50 [2]: 29.1 µM [falling, single point] | AC50 [1]: 16.4 µM [falling, single point]

COc1ccc(C)cc1Nc1nc(C)nc2sc(C)cc12
cell number change: 6.11% | AC50 [1]: 0.82 µM [rising, full curve, poor fit]

CCCN(CCC)C(=O)C1CCCN1S(=O)(=O)c1cccc2nsnc12 (stereo not drawn)
cell number change: -10.9%

CC1(C)CC(=O)C(C=NCCC2=CCCCC2)=C(O)C1
cell number change: 6.18%

COc1ccc(-n2nc([N+](=O)[O-])c(=NCCCN3CCCC3=O)n2O)cc1
cell number change: 19.8% | AC50 [1]: 13 µM [rising, single point]

COc1ccc(-n2cc(-c3ccc(OC)c(OC)c3)[nH]c2=S)cc1
cell number change: 3.88% | AC50 [1]: 0.0731 µM [rising, full curve]

CC1=CC(C)(C)N(C(=O)CSc2ncn[nH]2)c2ccccc21
AC50 [2]: 1.46 µM [rising, partial curve] | AC50 [1]: 1.64 µM [rising, partial curve, poor fit]

COc1ccc2oc(C(=O)OCC(=O)N3CCCCC3)c(C)c2c1
cell number change: 71.7% | AC50 [2]: 14.6 µM [rising, partial curve]

COc1ccc(-n2cccc2C=O)cc1
cell number change: 6.95% | AC50 [1]: 0.092 µM [rising, full curve, poor fit]

CCOc1ccc(CCNS(=O)(=O)c2cccc3nsnc23)cc1OCC
cell number change: 7.81% | AC50 [1]: 13 µM [rising, partial curve]

O=C(CNC(=O)[C@@H]1Cc2ccccc2CN1)Nc1ccc2c(c1)OCO2
cell number change: 50.2% | AC50 [2]: 29.1 µM [rising, single point] | AC50 [1]: 29.1 µM [rising, single point]

Cc1nn(Cc2ccccc2Cl)c(Cl)c1/C=C/C(=O)OCC(=O)NC(N)=O
cell number change: 16.9% | AC50 [1]: 1.03 µM [rising, full curve, poor fit]

COCCCN1C(=O)c2ccc(C(=O)N3CCN(c4ccc(OC)cc4)CC3)cc2C1=O
cell number change: -11% | AC50 [1]: 29.1 µM [falling, single point]

CN(C1=C(N2CCOCC2)C(=O)c2ccccc2C1=O)c1ccccc1
cell number change: -48.4% | AC50 [2]: 25.9 µM [falling, partial curve] | AC50 [1]: 18.4 µM [falling, partial curve]

CCOC(=O)c1ccccc1NC(=O)CSc1nnc(C)c(=O)[nH]1
cell number change: 2.63%

Cc1ccc2[nH]c(=O)c3cc(C(=O)N(C)Cc4ccco4)sc3c2c1
cell number change: -33.3% | AC50 [2]: 29.1 µM [falling, single point]

CC(C)=CCC/C(C)=C/COc1ccc2ccc(=O)oc2c1
cell number change: -24.4% | AC50 [1]: 32.6 µM [falling, single point]

O=C(Cc1ccc(F)cc1)Nc1ccc(S(=O)(=O)N2CCCCC2)cc1
cell number change: -45.2% | AC50 [2]: 23.1 µM [falling, single point] | AC50 [1]: 29.1 µM [falling, single point]

CC1CCCN(S(=O)(=O)c2ccc(S(=O)(=O)N3CCCC3)cc2)C1 (stereo not drawn)
cell number change: 15.4% | AC50 [1]: 29.1 µM [rising, single point]

Cc1[nH][nH]c(=O)c1C(c1c(C)[nH][nH]c1=O)c1cn(Cc2cccc3ccccc23)c2ccccc12
cell number change: -64.6% | AC50 [2]: 13 µM [falling, partial curve] | AC50 [1]: 23.1 µM [falling, partial curve, poor fit]

O=C(NNc1cc(Cl)cc(Cl)c1)c1c(F)cccc1Cl
cell number change: 10.6% | AC50 [2]: 0.58 µM [rising, single point]

CC(=O)c1c(C)[nH]c(C(=O)OCC(=O)Nc2ccc(C)cc2[N+](=O)[O-])c1C
cell number change: -51.2% | AC50 [2]: 14.6 µM [falling, partial curve, poor fit] | AC50 [1]: 16.4 µM [falling, single point]

CC(=O)c1ccc(NC(=O)C(C)OC(=O)c2ccc(NS(=O)(=O)c3ccc(F)c(F)c3)cc2)cc1 (stereo not drawn)
cell number change: 2.01% | AC50 [1]: 0.58 µM [falling, single point]

O=C(NCc1cccc(Br)c1)C1CC(c2ccccc2C(F)(F)F)=NO1 (stereo not drawn)
cell number change: 6.36% | AC50 [1]: 1.64 µM [rising, full curve]

CC1(C)CC(=O)c2sc(NS(=O)(=O)c3cc(Cl)ccc3Cl)nc2C1
cell number change: -8.57% | AC50 [1]: 6.51 µM [falling, single point]

O=S(=O)(Nc1ccc(F)cc1Cl)c1ccc(-c2cnc(C3CC3)o2)cc1
cell number change: -2.36%

COc1ccc(C2NC(=O)c3ccccc3O2)c(OC)c1OC (stereo not drawn)
cell number change: -20.5% | AC50 [2]: 2.06 µM [falling, full curve, poor fit] | AC50 [1]: 1.84 µM [falling, full curve, poor fit]

O=C(Cc1csc(-c2ccccc2)n1)NCc1ccccc1F
cell number change: 3.13%

O=C(O)COc1ccccc1/C=N/NC(=O)CN1CCN(S(=O)(=O)c2ccc(Br)cc2)CC1
AC50 [1]: 23.1 µM [rising, single point]

Cc1ccc(S(=O)(=O)NN2C(=O)/C(=C/c3cccc(F)c3)SC2=S)cc1
cell number change: -18% | AC50 [1]: 0.164 µM [falling, full curve]

O=c1[nH]c(CSc2nc3ccccc3o2)nc2c1cnn2-c1ccccc1
AC50 [2]: 0.092 µM [falling, full curve, poor fit] | AC50 [1]: 0.184 µM [falling, full curve]

Cn1c(SCC(N)=O)nnc1C1CCN(C(=O)NCc2ccccc2)CC1
cell number change: 13.3% | AC50 [1]: 0.366 µM [falling, single point]

CC(C)COC(=O)Cc1c(O)c2ccccc2[nH]c1=O
cell number change: 35.1% | AC50 [2]: 36.6 µM [rising, partial curve, poor fit] | AC50 [1]: 0.731 µM [rising, partial curve, poor fit]

CNS(=O)(=O)c1ccc2nc(NC(=O)/C=C/c3ccco3)sc2c1
cell number change: -31% | AC50 [2]: 16.4 µM [falling, single point] | AC50 [1]: 16.4 µM [falling, single point]

CN(C)c1cnn(-c2ccccc2)c(=O)c1Cl
cell number change: -27.8% | AC50 [1]: 0.0164 µM [falling, full curve]
